Results reported in patent US20090035818A1.
These are yes or no findings as the source states them, for the method shown. Some results given as binding are weak or reduced against the parent protein; the word gives no strength.

By UniProt entry, the sequences of proteins in these tests, tags left out. Residues count along the entry.
UniProt P01267, residues 20-2769: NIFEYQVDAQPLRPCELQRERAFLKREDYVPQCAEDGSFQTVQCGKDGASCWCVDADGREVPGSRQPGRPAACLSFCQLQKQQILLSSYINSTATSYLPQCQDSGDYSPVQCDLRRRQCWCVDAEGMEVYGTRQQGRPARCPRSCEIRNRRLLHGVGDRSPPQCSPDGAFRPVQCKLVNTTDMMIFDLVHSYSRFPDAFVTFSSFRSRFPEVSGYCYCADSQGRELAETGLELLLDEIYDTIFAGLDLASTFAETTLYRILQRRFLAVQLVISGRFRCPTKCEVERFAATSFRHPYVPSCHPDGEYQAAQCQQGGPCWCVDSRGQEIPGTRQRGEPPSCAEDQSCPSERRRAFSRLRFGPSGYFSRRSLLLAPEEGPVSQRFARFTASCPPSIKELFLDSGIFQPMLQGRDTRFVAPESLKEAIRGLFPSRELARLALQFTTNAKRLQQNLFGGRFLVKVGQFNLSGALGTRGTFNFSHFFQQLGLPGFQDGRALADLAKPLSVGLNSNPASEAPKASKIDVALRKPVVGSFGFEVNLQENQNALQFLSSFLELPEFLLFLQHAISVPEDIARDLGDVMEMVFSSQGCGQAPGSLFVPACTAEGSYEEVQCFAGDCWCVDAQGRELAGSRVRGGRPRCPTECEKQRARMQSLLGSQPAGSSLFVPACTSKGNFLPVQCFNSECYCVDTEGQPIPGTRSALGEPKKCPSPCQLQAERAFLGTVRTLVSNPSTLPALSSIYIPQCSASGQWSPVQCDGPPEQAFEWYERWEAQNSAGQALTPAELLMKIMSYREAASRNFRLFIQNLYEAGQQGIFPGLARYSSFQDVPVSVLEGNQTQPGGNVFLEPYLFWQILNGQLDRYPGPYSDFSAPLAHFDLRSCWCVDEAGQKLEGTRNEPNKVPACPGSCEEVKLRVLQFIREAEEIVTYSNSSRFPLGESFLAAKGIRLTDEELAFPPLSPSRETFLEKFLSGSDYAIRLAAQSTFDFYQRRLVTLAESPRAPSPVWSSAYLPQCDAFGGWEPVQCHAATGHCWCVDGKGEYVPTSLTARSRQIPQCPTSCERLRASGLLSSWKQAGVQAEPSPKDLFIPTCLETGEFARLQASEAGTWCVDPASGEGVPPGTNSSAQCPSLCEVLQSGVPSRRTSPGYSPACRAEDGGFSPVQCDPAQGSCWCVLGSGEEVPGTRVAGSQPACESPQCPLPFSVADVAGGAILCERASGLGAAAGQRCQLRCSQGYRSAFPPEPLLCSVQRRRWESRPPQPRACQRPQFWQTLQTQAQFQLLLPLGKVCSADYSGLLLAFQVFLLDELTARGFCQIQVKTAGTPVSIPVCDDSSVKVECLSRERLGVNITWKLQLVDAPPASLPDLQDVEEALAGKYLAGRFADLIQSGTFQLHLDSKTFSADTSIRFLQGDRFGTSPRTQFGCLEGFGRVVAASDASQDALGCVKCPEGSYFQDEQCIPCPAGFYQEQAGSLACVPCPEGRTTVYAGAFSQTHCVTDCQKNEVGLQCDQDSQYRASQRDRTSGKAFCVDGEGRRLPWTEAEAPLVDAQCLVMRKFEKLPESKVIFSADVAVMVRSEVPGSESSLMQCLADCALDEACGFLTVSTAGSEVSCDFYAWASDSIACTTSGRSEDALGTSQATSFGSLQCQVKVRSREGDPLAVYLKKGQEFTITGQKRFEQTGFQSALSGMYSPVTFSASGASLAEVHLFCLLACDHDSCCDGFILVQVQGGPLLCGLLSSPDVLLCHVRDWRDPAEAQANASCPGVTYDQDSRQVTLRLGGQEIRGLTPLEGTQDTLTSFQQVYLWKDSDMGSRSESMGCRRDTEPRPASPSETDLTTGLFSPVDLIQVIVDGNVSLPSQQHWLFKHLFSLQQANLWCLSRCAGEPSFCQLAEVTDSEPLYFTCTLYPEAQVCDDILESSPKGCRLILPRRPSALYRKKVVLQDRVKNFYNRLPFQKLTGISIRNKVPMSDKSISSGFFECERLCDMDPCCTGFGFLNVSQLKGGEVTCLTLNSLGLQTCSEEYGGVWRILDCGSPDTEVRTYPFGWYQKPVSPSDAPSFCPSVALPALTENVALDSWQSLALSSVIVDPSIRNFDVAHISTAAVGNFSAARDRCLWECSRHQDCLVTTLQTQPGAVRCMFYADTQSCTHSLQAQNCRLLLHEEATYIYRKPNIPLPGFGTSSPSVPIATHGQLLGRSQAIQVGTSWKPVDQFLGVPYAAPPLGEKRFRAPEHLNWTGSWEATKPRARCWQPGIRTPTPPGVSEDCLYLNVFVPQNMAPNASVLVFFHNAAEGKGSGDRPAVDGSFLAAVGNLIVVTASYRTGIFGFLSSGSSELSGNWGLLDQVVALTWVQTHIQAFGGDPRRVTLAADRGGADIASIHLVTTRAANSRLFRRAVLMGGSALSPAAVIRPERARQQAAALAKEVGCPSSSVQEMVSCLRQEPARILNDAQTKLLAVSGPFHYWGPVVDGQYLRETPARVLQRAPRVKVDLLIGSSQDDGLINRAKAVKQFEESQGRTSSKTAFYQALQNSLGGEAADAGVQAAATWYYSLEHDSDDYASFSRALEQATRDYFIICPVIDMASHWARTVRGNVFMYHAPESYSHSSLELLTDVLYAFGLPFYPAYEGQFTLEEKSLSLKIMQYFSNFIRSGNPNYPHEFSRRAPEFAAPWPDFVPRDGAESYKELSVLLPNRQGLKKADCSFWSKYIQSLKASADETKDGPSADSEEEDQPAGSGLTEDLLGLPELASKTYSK

Columns and labels:
[1] = target: bovine tyroglobulin (cattle) (UniProt P01267); assay: SPR, bovine tyroglobulin on CM5 chip, lectin as analyte
[2] = target: bovine tyroglobulin (cattle) (UniProt P01267); assay: SPR, bovine tyroglobulin (12,095 RU) on CM5 chip, lectin 100 µg/ml, elution with 0.5 M D-mannose
[3] = target: bovine tyroglobulin (cattle) (UniProt P01267); assay: SPR (Biacore), bovine tyroglobulin immobilised on CM5 chip (12,095 RU), lectin 100 µg/ml in HBS-EP at 5 µl/min
[4] = target: bovine tyroglobulin (cattle) (UniProt P01267); assay: SPR (Biacore), residual lectin on bovine tyroglobulin chip after HBS-EP wash and after 0.5 M D-mannose, relative to amount bound (100 %)

Measured: binding

B1: Eucheuma serra-derived lectin ESA-2 (protein)
chain: GRYTVQNQWGGSSAPWNDAGLWILGSRGNQNVMAVDVNSSDGGANLNGTMTYSGEGPIGFKGARRGESNVYDVENQWGGSSAPWHAGGQFVIGSRSGQGVLAVNITSSDGGKTLTGTMTYEREGPIGFKGTQSGGDTYNVENQWGGSSAPWNKAGIWALGDRSGQAMIAMDVSSSDGGKTLEGTMQYKGEGPIGFRGKLSGANNYSVENQWGGSSAPWNAAGDWLIGDRHNQNITAVKVSSDNDGKNLDGTCTYEREGPIGFKGVATS
binds: [1] | [2] | [3] | [4]
